The source of these data is patent US20040247689A1, “Process for preparing a pharmaceutical active ingredient with high specific surface area” (priority 2003, published 2004).

Read-outs that look alike come from different tables or passages of the source.

On to `COC(=O)C1=C(C)NC(C)=C(C(=O)OC)C1c1ccccc1[N+](=O)[O-]` [nifedipine, 1,4-dihydro-2,6-dimethyl-4-(2-nitrophenyl)-dimethyl ester], for which the S.S.A. entry (freezer storage, micronization repeated twice with subsequent freezing (Example 2)) is recorded as “at least 6.5 m^2/g” and the S.S.A. (micronized under same conditions without being put in a freezer (comparative Example 4)) came to 4.6 m^2/g. The “initial S.S.A.” value (stored in freezer at about -10 to -20° C. about 24 hours, micronized once (Example 1)) is “at least 5.5 m^2/g”.
